## Primary screen of a compound library

Data taken from ChEMBL document CHEMBL3988442, “University of Dundee, Small-Polar-MMV Screening Library” (2021).

Mtb growth Cornell: 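Whole-cell assay for inhibitors of Mycobacterium tuberculosis growth, labelled Cornell in the record; the read-out is not stated. The concentration is filed as 10 mM, unlikely as a test dose, so the dose is not known. The record gives no direction; compounds strong in two other growth screens of this library score well above the rest, so higher reads as stronger inhibition. Of about 53,000 compounds tested this way, about 900 (1.7%) reached 50% or more in at least one test.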
Mtb heat-shock: 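Assay on Mycobacterium tuberculosis, filed only as a heat shock assay from Cornell; the read-out is not stated. The concentration is filed as 10 mM, unlikely as a test dose, so the dose is not known. Higher reads as stronger inhibition (inferred: compounds with an IC50 in retests scored well above the rest). Size under these conditions: about 69,000 compounds, about 930 of them at 50% or above in at least one test.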

Values are the deposited “Percent Effect”, in %.
How 0% and 100% were set is not recorded. Most values in the screen are low, and negative values occur.
Compounds were drawn at random from those tested, without regard to their results.
A dash means the value is not listed here; it may have been measured.

| structure | Mtb growth Cornell | Mtb heat-shock |
|---|---|---|
| `CCOc1ccc2cc(C(=O)N3CCn4c(CC)nnc4C3)[nH]c2c1` | -47.11 | -16.15 |
| `Cn1cc(N2CC3(COCCN(Cc4ccsc4)C3)OCC2=O)cn1.O=C(O)C(F)(F)F` (stereo unspecified) | -3.747 | -15.05 |
| `Cc1ncsc1C(=O)NC1CCN(CCC(=O)Nc2ccccc2)CC1` | -23.65 | -5.956 |
| `COCCn1nc(C(=O)N(C)Cc2cccnc2)ccc1=O` | 14.31 | -8.504 |
| `CCn1cc(CN2CCN(Cc3cccc(OC)c3)C(=O)C2)cc1C#N` | 34.8 | -1.308 |
| `COc1cc(CN2CCC3(CC(Nc4ccncn4)C3)C2)cc(OC)c1` (stereo unspecified) | 3.673 | -16.45 |
| `CN(CC(F)(F)F)C(=O)CNC(=O)Cc1ccc(O)cc1Cl` | - | -0.1018 |
| `O=S(=O)(NCCn1ccc(-c2ccccn2)n1)C1CCCCC1` | - | -26.71 |
| `COC(=O)[C@@H]1C[C@H](NC(=O)Cn2c(=O)cc(C)c3ccccc32)CN1C` | -18.95 | -12.22 |
| `Cc1nn(C)c(C)c1C1CCCN1C(=O)CCCNc1ncccn1` (stereo unspecified) | - | -2.591 |
| `NCC1CN(c2nc(-c3cccnc3)nc3c2CCNCC3)CCO1` (stereo unspecified) | 0.3399 | -11.98 |
| `O=C(C1CC1)N1CC2(CCNCC2)c2cc(F)ccc21.O=C(O)C(F)(F)F` | - | 2.657 |
| `Cc1cc(-n2cncn2)n2ncnc2n1` | 64.26 | 61.29 |
| `Cc1cnn(CC2CCCN2C(=O)c2cccc(-n3ccc(C)n3)c2)c1` (stereo unspecified) | -23.44 | -12.53 |
| `CNc1ncc(CN(C)Cc2cc3n(n2)CCNC3)cn1` | -9.568 | -11.43 |
| `O=S(=O)(CC1CCCN1S(=O)(=O)c1cccnc1)c1ccccc1` (stereo unspecified) | 9.472 | 1.945 |
| `CC(C)c1nnc2n1CCN(Cc1ccc3c(c1)OCCO3)C2` | -1.292 | 0.4168 |
| `CCc1noc(C2CCCCN2C(=O)c2nnc3ccccc3n2)n1` (stereo unspecified) | - | 4.658 |
| `O=S1(=O)CCC(N(Cc2nc3ccccc3o2)Cc2cccs2)C1` (stereo unspecified) | -24.46 | -13.04 |
| `CN1CCN(Cc2nnc(C3CCN(C4CCCCC4)CC3)n2C)CC1` | 9.681 | -7.569 |
| `O=C(O)C(F)(F)F.[H][C@@]12COC[C@]1(CN(C)C)CN(C(=O)CCc1ccccc1)C2` | 5.18 | -31.23 |
| `O=C(c1ccc2[nH]nnc2c1)N1C[C@H](O)[C@]2(CCCO2)C1` | 13.7 | 11.22 |
| `O=C(c1ccc(C2CCCO2)s1)N1CCN(c2ccccc2F)CC1` (stereo unspecified) | - | -5.567 |
| `O=S(=O)(NCC(O)c1ccc2c(c1)CCO2)c1ccccc1F` (stereo unspecified) | 16.8 | 6.514 |
| `CCc1nccn1-c1cncc(C2CCCN2CC(=O)N2CCCC2)n1` (stereo unspecified) | - | -18.22 |
| `O=C(O)C(F)(F)F.[H][C@@]12COC[C@@H](CC(=O)N3CCOCC3)[C@]1([H])CN(Cc1ccc(F)cc1)C2` | - | -22.82 |
| `COc1ccccc1CC(NC(=O)N1CCC[C@@H]1CO)C(C)C` (stereo partly specified) | 7.732 | -2.285 |
| `CCC(O)CN1CCN(C(=O)Cc2nc(-c3ccco3)oc2C)CC1` (stereo unspecified) | -7.331 | 8.857 |
| `COCCN(C)C(=O)Nc1ccc2c(ccn2CC(=O)N(C)C)c1` | 1.617 | -0.2168 |
| `CC(C)CN1C(=O)C2(CCN(CC3CCOCC3)C2)c2ccccc21.O=C(O)C(F)(F)F` (stereo unspecified) | 22.34 | 0.6869 |
| `O=C(c1cnccn1)N1CCC2(CCCN(Cc3ccoc3)C2)C1` (stereo unspecified) | -24.23 | -22.16 |
| `CS(=O)(=O)NCCNC(=O)C1(c2cccc(Cl)c2)CC1` | -28.26 | -7.837 |
| `O=C(c1cccnc1Oc1ccc(Cl)cc1)N1CC[C@@H](O)C1` | -40.1 | 54.07 |
| `Fc1ccc(-c2cc(NCCC3CCOC3)n3nccc3n2)cc1` (stereo unspecified) | - | -20.69 |
| `CC(C)n1ccnc1C1CCCN(c2nc3ccccc3s2)C1` (stereo unspecified) | 9.944 | 3.487 |
| `CN1Cc2ccccc2CC2(CCN(c3ncccn3)CC2)C1=O` | 28.34 | -4.792 |
| `Cc1nc[nH]c1CN(Cc1ccccc1F)C1CC(C)(C)NC(C)(C)C1.O=C(O)CC(O)(CC(=O)O)C(=O)O` | 16.61 | -2.69 |
| `O=S1(=O)CCC(n2cc(C3=CCN(CCn4cccc4)CC3)cn2)C1` (stereo unspecified) | 1.872 | 36.32 |
| `Cc1cccc2[nH]cc(CC(=O)N3CCC(Nc4cccnn4)CC3)c12` | - | -9.192 |
| `[H][C@]12CC[C@]([H])(CN(Cc3ccncc3)C1)N(Cc1cccc(O)c1)C2` | -15.29 | -12.48 |
| `CC(C(=O)N(Cc1ccc(F)cc1)CC(F)(F)F)S(C)(=O)=O` (stereo unspecified) | - | 16.68 |
| `CC(c1nc(-c2cccnc2)no1)N(C)CCCOc1ccccc1` (stereo unspecified) | 2.6 | -13.46 |
| `CC(C)c1noc(CS(=O)(=O)CC(=O)NCc2cccs2)n1` | - | 58.74 |
| `[H][C@@]12CNCC[C@]1(O)CCN(C(=O)C1(c3ccc(OC)cc3)CCCC1)C2` | -8.762 | -9.413 |
| `Cc1c(COc2ccccc2)cccc1NC(=O)N1CC[C@H](O)C1` | - | 12.64 |
| `Cc1cccc(S(=O)(=O)NCc2cccc(CS(C)(=O)=O)c2)c1` | -16.42 | -23.61 |
| `COc1ccnc(N2CCN(C(=O)CN3CCOCC3)CC2)n1` | -13.9 | -20.49 |
| `COc1ccc(C2CC(=O)Nc3c2cnn3C)cc1` (stereo unspecified) | 5.889 | -11.03 |
| `CC(C)=CCN1CCC(c2nnc(CN3CCN(C)CC3)n2C)CC1` | -14.85 | -1.66 |
| `CC(C)CCc1n[nH]c(C(=O)O)c1Cl` | -0.9753 | -12.27 |
| `O=C(N[C@@H]1CN(Cc2c[nH]nc2-c2ccccc2)C[C@H]1O)c1cc[nH]n1` | -4.429 | 1.707 |
| `CSCCC(=O)N1CCCC1c1ccsc1` (stereo unspecified) | -17.71 | 1.044 |
| `COc1ccc2c(OCC(=O)NC(C)(C)C)ccnc2c1` | 5.668 | 19.08 |
| `CN(C)Cc1cccc(C(=O)N2CCCC(n3cncn3)C2)c1` (stereo unspecified) | -30.99 | -9.623 |
| `O=C(O)C(F)(F)F.O=C(O)C(F)(F)F.c1cncc(OCc2noc3c2CN(Cc2cccs2)CC3)c1` | 15.17 | -22.4 |
| `Cc1nn(C)c(Cl)c1C1CCCN1CC(=O)NCc1ccco1` (stereo unspecified) | -18.71 | -5.835 |
| `Cc1cc2n(n1)[C@@H](C(F)(F)F)C[C@@H](C1CCCN(C(=O)C(C)C)C1)N2` (stereo partly specified) | -20.19 | -3.379 |
| `[H][C@]12CC[C@@]3(N=C(C)N(CC(C)C)C3=O)[C@@]1([H])CN(C(=O)NC(C)C)C2` | -0.9992 | -0.9005 |

3 of the entries, repeated:

| structure | Mtb growth Cornell | Mtb heat-shock |
|---|---|---|
| `CCc1noc(C2CCCCN2C(=O)c2nnc3ccccc3n2)n1` (stereo unspecified) | - | 4.658 |
| `COC(=O)[C@@H]1C[C@H](NC(=O)Cn2c(=O)cc(C)c3ccccc32)CN1C` | -18.95 | -12.22 |
| `O=C(C1CC1)N1CC2(CCNCC2)c2cc(F)ccc21.O=C(O)C(F)(F)F` | - | 2.657 |